The record followed here is paper PMC4359269.

Protein sequences, listed by entry. Tags and fused reporters are not part of them.
UniProt O95863: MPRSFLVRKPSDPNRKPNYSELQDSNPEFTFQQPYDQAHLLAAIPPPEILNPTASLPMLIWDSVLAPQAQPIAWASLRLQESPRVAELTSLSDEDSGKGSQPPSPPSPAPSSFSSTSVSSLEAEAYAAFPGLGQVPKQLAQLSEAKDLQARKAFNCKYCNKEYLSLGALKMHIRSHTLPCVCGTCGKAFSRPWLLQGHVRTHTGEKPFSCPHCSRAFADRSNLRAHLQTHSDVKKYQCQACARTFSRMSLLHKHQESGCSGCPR
UniProt Q15672: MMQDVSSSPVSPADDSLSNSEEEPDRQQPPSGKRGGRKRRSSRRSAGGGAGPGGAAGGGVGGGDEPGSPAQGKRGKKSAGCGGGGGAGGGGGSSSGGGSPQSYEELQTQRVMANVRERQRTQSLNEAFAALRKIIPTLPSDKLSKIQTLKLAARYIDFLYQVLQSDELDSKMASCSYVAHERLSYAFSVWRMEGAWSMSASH

Test [1] has as its target T1, GST-Fbxo45 (human) (UniProt P0C2W1).
T1 sequence: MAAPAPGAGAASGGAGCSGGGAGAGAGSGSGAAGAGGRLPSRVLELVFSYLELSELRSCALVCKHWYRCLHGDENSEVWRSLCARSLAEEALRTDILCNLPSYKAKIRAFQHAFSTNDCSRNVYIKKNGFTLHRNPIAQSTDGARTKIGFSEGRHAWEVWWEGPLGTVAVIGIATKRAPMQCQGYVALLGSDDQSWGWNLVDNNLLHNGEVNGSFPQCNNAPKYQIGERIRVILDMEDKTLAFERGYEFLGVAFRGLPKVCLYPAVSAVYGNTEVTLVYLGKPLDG
Kind of test: pull-down; purified GST-tagged Fbxo45 forms and Glutathione sepharose 4B beads incubated with HeLa cell extract in RIPA buffer (50 mM Tris-HCl pH 7.4, 150 mM NaCl, 0.5% NP-40) at 4°C overnight; washed with RIPA buffer; immunoblot; only the target purified. In general terms: In western blotting, separated proteins are transferred to a membrane and probed.

In test [2] the target is T1, GST-Fbxo45 (human). Kind of test: pull-down; purified GST-tagged Fbxo45 forms with exogenously expressed Snai1, Snai2 or Twist1 from HEK293T cells (Supplementary Fig S4); only the target purified.
Test [3] addresses Flag-tagged Snai1 (UniProt O95863). The test can be described thus: co-IP; lysates of co-transfected HEK293T cells, modified RIPA buffer (50 mM Tris-HCl pH 7.4, 150 mM NaCl, 0.5% NP-40); IP with anti-Flag M2 (Figure 3C also anti-HA), immunoblot.
Test [4] addresses T2, 3xFlag-Zeb1 (human) (UniProt P37275).
T2 sequence: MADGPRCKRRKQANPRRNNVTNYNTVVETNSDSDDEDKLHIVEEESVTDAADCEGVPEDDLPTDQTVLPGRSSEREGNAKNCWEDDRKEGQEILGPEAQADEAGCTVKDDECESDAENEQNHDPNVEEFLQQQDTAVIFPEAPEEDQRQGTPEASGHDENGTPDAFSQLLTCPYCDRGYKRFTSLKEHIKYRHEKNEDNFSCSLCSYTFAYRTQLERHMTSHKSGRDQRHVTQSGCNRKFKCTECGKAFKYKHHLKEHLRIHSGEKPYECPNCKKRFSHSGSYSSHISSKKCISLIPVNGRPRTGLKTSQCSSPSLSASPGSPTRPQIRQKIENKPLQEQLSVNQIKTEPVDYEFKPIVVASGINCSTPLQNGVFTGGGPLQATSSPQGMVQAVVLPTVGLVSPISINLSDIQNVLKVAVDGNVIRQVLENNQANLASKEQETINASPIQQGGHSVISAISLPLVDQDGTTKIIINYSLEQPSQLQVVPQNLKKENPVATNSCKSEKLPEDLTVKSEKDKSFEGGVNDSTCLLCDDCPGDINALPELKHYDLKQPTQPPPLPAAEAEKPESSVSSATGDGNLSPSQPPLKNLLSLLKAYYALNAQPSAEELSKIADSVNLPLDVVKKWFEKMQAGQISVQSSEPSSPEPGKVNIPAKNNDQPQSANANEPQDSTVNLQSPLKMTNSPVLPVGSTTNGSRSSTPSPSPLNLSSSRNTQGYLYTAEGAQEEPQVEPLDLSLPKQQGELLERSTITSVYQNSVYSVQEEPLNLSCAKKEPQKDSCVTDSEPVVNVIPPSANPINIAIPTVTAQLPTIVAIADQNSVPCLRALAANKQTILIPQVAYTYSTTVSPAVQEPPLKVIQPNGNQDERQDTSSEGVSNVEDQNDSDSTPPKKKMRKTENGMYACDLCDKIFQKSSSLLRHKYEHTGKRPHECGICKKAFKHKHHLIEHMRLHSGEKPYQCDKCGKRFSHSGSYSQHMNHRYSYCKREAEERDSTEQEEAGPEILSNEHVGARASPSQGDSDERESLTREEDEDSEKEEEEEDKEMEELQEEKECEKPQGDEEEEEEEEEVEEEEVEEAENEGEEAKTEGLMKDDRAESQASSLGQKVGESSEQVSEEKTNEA
The test is described as above.

Test [5] addresses T3, 3xFlag-Zeb2 (human) (UniProt O60315).
T3 sequence: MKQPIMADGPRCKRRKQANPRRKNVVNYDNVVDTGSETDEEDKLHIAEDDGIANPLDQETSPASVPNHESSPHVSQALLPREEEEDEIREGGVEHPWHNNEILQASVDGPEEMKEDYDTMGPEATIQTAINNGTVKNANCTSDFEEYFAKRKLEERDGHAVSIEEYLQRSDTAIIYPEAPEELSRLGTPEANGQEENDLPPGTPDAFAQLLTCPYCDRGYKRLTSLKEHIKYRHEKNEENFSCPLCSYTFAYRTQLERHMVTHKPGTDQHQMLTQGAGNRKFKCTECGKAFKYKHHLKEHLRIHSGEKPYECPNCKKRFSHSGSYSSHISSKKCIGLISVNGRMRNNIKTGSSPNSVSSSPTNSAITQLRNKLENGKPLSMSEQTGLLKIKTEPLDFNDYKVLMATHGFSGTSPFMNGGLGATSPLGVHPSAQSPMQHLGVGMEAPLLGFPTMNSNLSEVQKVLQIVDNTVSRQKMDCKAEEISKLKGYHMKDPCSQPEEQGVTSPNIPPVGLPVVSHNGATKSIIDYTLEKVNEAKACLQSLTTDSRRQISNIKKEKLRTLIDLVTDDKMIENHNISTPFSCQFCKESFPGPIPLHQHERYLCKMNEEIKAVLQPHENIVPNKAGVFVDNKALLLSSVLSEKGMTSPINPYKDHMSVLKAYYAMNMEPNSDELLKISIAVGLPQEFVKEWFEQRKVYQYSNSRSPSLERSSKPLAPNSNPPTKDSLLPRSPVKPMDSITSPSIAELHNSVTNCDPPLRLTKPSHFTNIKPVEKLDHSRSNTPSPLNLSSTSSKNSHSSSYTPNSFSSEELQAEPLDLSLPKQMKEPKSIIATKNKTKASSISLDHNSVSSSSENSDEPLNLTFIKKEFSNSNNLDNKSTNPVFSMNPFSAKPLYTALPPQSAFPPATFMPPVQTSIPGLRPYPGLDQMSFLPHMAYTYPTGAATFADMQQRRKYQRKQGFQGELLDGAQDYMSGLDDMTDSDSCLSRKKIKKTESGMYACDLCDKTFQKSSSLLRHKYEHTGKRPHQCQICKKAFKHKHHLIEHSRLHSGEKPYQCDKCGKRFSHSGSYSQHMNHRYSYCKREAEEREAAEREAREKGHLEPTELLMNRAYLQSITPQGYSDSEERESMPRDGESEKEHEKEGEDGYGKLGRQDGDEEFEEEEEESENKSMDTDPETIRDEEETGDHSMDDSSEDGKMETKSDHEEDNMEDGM
The description is as above.

Test [6] deals with Flag-tagged Twist1 (UniProt Q15672). The description is as above.
For test [7], the target named is T4, Flag-tagged Snai2 (UniProt O43623).
T4 sequence: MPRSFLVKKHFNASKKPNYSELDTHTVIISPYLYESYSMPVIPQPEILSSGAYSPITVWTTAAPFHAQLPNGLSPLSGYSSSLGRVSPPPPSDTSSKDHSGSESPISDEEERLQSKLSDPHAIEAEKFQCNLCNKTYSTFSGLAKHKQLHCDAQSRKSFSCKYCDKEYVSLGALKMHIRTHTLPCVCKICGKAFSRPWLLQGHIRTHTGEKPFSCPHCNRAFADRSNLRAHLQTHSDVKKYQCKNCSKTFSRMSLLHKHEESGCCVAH
Described as above.

These are yes or no findings as the source states them, for the method shown. Binding seen in cells or lysates may run through a third protein. Some entries that bind do so weakly or less than the wild type. Tags and fused reporters may be left off the sequences shown.

Take “endogenous Snai1 (from UniProt O95863 1-264)”: the binding result in test [1] is listed as “binds”.
Turning to “Flag-tagged Snai1 (from UniProt O95863 1-264)”, the binding entry in test [2] was “binds”.
Still for that read-out and setting: with “Flag-tagged Twist1 (from UniProt Q15672 1-202)” the entry was “binds”.

B1: HA-Fbxo45 (protein, UniProt P0C2W1 1-286)
chain: T1 sequence
Regarding B1, the binding result in test [3], in test [4], in test [5], in test [6] and in test [7] was “binds” throughout.

B2: endogenous Zeb2 (protein, UniProt O60315 1-1214)
chain: T3 sequence
For B2, the binding result in test [1] is “binds”.

B3: Flag-tagged Snai2 (protein, UniProt O43623 1-268)
chain: T4 sequence
Consider B3, for which the binding result in test [2] was “binds”.

B4: endogenous Snai2 (protein, UniProt O43623 1-268)
chain: T4 sequence
For B4, in test [1], the binding entry is on record as “binds”.
